{
  "source": "patent US20090148382A1",
  "about": "“Technetium- and rhenium-bis(heteroaryl) complexes, and methods of use thereof” (Molecular Insight Pharmaceuticals, Inc., priority 2004, published 2009)",
  "target": "T1, formyl peptide receptor (Homo sapiens, UniProt P21462)",
  "T1 sequence (P21462 1-350)": "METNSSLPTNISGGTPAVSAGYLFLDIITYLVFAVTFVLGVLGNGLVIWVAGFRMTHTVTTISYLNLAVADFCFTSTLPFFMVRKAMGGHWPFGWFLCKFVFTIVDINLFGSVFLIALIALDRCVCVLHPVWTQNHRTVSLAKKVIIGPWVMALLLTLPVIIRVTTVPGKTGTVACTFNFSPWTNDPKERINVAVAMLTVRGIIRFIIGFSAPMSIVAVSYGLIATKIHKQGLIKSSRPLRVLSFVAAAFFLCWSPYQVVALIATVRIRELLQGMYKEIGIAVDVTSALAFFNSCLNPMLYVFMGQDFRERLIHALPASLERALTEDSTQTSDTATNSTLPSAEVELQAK",
  "test": "Affinity for the formyl peptide receptor by flow cytometry",
  "type": "binding",
  "details": "fluorescein labeled fNLFNTK as the reference ligand",
  "description": "The affinity of 5 and 6 for the formyl peptide receptor was determined by flow cytometry using fluorescein labeled fNLFNTK as the reference ligand.",
  "note": "Part of at least one peptide drawing is inferred or uncertain, most often the ends. Numbered stars: 1 amine (or outer) side, 2 acyl side, 3 side chain; on linkers, the order of the positions; unused ones are H or OH. Square brackets hold non-standard residues; d marks the D form. Peptide text beside a SMILES is read from it. * marks the point of attachment. X1 = O=C([C@H](CCCCN(Cc1cc2ccccc2cn1)Cc1cc2ccccc2cn1)N[*:1])[*:2]; For = O=C*",
  "data": [
    {"smiles": "CSCC[C@H](NC=O)C(=O)N[C@@H](CC(C)C)C(=O)N[C@@H](Cc1ccccc1)C(=O)N[C@@H](CCCCN(Cc1cc2ccccc2cn1)Cc1cc2ccccc2cn1)C(=O)NCC(=O)O", "note": "[Compound 5, fMLF(SAACQ)Gly] (For-MLF[X1]G-OH)", "values": [
      {"measurement": "Kd", "value": "11 ± 3", "unit": "nM"}
    ]}
  ]
}
